Results taken from article PMC7402468.
No constants are given. Whether binding was seen depends on the method and setting. Binding seen in cells or lysates may run through a third protein. Some binding calls cover weakened binding; strength is not graded here. Sequences can lack the tags named with a protein. Values belong to the molecule of their own block, whether it stands above or below them.

The chains behind the UniProt entries cited, without tags or fusion partners.
UniProt P51140: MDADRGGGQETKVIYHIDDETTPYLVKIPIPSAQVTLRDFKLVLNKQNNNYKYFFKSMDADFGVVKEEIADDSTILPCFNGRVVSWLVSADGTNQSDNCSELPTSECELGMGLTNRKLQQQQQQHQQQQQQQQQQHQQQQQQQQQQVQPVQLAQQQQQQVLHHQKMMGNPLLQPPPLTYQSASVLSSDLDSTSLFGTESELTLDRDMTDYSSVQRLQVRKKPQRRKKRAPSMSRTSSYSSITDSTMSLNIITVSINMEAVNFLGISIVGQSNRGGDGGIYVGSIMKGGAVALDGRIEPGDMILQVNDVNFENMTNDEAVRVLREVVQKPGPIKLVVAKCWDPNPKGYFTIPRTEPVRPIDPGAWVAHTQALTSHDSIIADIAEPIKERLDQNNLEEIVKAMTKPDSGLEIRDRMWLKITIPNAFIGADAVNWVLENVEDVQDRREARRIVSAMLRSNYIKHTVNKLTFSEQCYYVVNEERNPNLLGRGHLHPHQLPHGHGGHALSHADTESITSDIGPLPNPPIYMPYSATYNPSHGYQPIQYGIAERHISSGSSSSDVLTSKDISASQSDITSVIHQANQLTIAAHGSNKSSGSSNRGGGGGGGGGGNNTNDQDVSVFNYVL

Legend:
[1] = target: T1, Myc-tagged Bride of Doubletime (Myc-Bdbt) (Drosophila) (UniProt Q9VDE4); assay: co-IP; S2 cells transfected with Dsh-ECFP and either Myc-DAnkrd49 or Myc-Bdbt; immunoprecipitation with Myc antibody resin in RIPA buffer (50 mM Tris-HCl pH 7.5, 100 mM NaCl, 1% NP-40, 0.5% sodium deoxycholate, 0.1% SDS); western blot with anti-GFP
T1 sequence: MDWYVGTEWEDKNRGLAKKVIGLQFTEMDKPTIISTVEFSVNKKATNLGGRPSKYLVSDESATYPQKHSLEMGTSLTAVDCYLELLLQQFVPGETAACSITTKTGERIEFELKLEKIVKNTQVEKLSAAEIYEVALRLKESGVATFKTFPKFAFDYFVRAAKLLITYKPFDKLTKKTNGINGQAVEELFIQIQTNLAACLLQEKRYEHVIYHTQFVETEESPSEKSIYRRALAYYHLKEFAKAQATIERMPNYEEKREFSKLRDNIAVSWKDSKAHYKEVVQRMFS

[2] = target: T2, Myc-tagged DAnkrd49 (Myc-DAnkrd49) (Drosophila) (UniProt Q9V3Y0); assay: as above
T2 sequence: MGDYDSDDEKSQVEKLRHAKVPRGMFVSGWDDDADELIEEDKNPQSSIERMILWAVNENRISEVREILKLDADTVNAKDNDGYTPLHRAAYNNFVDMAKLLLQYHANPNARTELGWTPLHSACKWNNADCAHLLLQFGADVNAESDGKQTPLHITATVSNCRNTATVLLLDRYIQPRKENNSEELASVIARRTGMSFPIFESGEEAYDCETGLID

[3] = target: T3, EGFP-tagged Bride of Doubletime (Bdbt-EGFP) (Drosophila) (UniProt Q9VDE4); assay: co-IP; Bdbt-EGFP and Myc-DAnkrd49 co-transfected into Drosophila S2 cells; immunoprecipitation with GFP rabbit serum in 50 mM Tris-HCl pH 7.5, 150 mM NaCl, 1% TritonX-100, protease inhibitors; western blot with anti-Myc
T3 sequence: T1 sequence

binding [1]: no binding
binding [2]: no binding
Molecule: Dishevelled-ECFP (Dsh-ECFP) (from UniProt P51140 1-623)

binding [3]: binds
B1: Myc-tagged DAnkrd49 (Myc-DAnkrd49) (protein, UniProt Q9V3Y0 1-215)
chain: T2 sequence
